Measurements reported in the supplement of paper PMC7238544.
Counter-ions that a name gives are not always drawn. ± gives the standard deviation of the averaged measurements. Some of the results follow. The data scatter; read single values as rough.

Tests used:
[1] = tested on: hAMSC donor 1; assay: Hoechst total cell count ratio vs vehicle control; higher = more cells (less toxicity)
[2] = tested on: hAMSC donor 2; assay: as above
[3] = tested on: hAMSC donor 1; assay: transgenic luciferase activity (RLU/mg protein) fold change vs vehicle control (ratio); higher = more transgene expression
[4] = tested on: hAMSC donor 2; assay: as above
[5] = tested on: hAMSC donor 1; assay: transfection efficiency (EGFP+ cells / Hoechst count) fold change vs vehicle control (ratio); hAMSC are human adipose-derived mesenchymal stem cells given an EGFP-luciferase plasmid by lipofection; higher = enhanced transfection
[6] = tested on: hAMSC donor 2; assay: as above
[7] = priming compound concentration 0.2 µM
[8] = priming compound concentration 1.7 µM
[9] = priming compound concentration 13 µM

SMILES | Hoechst total cell count ratio [1, 7] | Hoechst total cell count ratio [1, 8] | Hoechst total cell count ratio [1, 9] | Hoechst total cell count ratio [2, 7] | Hoechst total cell count ratio [2, 8] | Hoechst total cell count ratio [2, 9] | transgenic luciferase activity [3, 7] | transgenic luciferase activity [3, 8] | transgenic luciferase activity [3, 9] | transgenic luciferase activity [4, 7] | transgenic luciferase activity [4, 8] | transgenic luciferase activity [4, 9] | transfection efficiency [5, 7] | transfection efficiency [5, 8] | transfection efficiency [6, 7] | transfection efficiency [6, 8] | transfection efficiency [6, 9] | transfection efficiency [5, 9]
CCN(CC)C(=S)SSC(=S)N(CC)CC [Disulfiram] | 1.11 ± 0.12 | 1.24 ± 0.068 | 0.262 ± 0.027 | 0.894 ± 0.26 | 0.934 ± 0.17 | 0.0947 ± 0.07 | 0.653 ± 0.048 | 0.47 ± 0.15 | 2.03 ± 0.87 | 1.22 ± 0.6 | 0.913 ± 0.076 | 0.0343 ± 0.026 | 1.12 ± 0.42 | 0.928 ± 0.28 | 1.18 ± 0.26 | 1.33 ± 0.089 | 1.27 ± 0.61 | 
CCC[C@@H]1C[C@@H](C(=O)N[C@@H]([C@H]2O[C@H](SC)[C@H](O)[C@@H](O)[C@H]2O)[C@@H](C)O)N(C)C1 [Lincomycin hydrochloride] | 1.48 ± 0.2 | 1.25 ± 0.15 | 1.21 ± 0.1 | 0.903 ± 0.19 | 0.888 ± 0.058 | 1.03 ± 0.037 | 0.627 ± 0.19 | 1.49 ± 0.33 | 0.769 ± 0.41 |  |  | 1.25 ± 0.31 | 0.992 ± 0.096 | 1.2 ± 0.24 | 1.06 ± 0.24 | 1.13 ± 0.11 | 1.35 ± 0.19 | 0.836 ± 0.043
NC12CC3CC(CC(C3)C1)C2 [Symmetrel] | 1.52 ± 0.21 | 1.27 ± 0.18 | 1.28 ± 0.084 | 0.839 ± 0.26 | 0.589 ± 0.13 | 1.34 ± 0.32 | 0.492 ± 0.28 | 0.65 ± 0.27 | 0.342 ± 0.18 |  |  | 1.08 ± 0.098 | 1.03 ± 0.29 | 1.02 ± 0.097 | 1.33 ± 0.38 | 1.14 ± 0.092 | 1.57 ± 0.2 | 0.6 ± 0.15
O=C(CCCN1CCC(O)(c2ccc(Cl)cc2)CC1)c1ccc(F)cc1 [Haloperidol hydrochloride] |  |  |  |  |  |  | 1.24 ± 0.78 | 2.1 ± 0.63 | 2.06 ± 0.2 | 0.962 ± 0.067 | 0.91 ± 0.24 | 0.899 ± 0.26 |  |  | 0.856 ± 0.14 | 0.767 ± 0.14 | 0.57 ± 0.093 | 
CC(C(O)c1ccc(O)cc1)N1CCC(Cc2ccccc2)CC1 (centres undefined) [Ifenprodil hemitartrate] | 1.34 ± 0.11 | 1.11 ± 0.24 | 1.26 ± 0.15 | 1.14 ± 0.058 | 1.36 ± 0.09 | 1.16 ± 0.1 |  | 1.03 ± 0.58 | 0.482 ± 0.19 | 0.395 ± 0.035 | 0.838 ± 0.062 | 0.69 ± 0.11 | 1.28 ± 0.29 | 1.16 ± 0.2 | 0.679 ± 0.1 | 0.907 ± 0.09 | 1.03 ± 0.18 | 0.992 ± 0.23
COC1=CC(=O)C[C@@H](C)[C@]12Oc1c(Cl)c(OC)cc(OC)c1C2=O [Griseofulvin] | 1.05 ± 0.26 | 1.19 ± 0.17 | 1.17 ± 0.12 | 1.15 ± 0.18 | 1.09 ± 0.025 | 1.26 ± 0.17 |  | 0.276 ± 0.1 | 1.08 ± 0.19 | 1.06 ± 0.12 | 1.01 ± 0.066 | 0.545 ± 0.039 | 0.843 ± 0.12 | 1.16 ± 0.51 | 1.06 ± 0.11 | 0.99 ± 0.13 | 0.882 ± 0.18 | 1.06 ± 0.29
Cc1ncc([N+](=O)[O-])n1CC(C)O (centres undefined) [Secnidazole] | 1.08 ± 0.071 | 1.22 ± 0.11 | 1.41 ± 0.058 | 0.964 ± 0.2 | 1.09 ± 0.3 | 1.08 ± 0.15 | 0.664 ± 0.12 | 0.984 ± 0.14 |  | 0.952 ± 0.69 | 1.07 ± 0.18 | 0.68 ± 0.24 | 1.43 ± 0.28 | 1.22 ± 0.16 | 1.12 ± 0.27 | 1.28 ± 0.28 | 1.07 ± 0.12 | 0.836 ± 0.1
